Data published in the supplement of paper PMC10849652.
The other results are listed elsewhere or left out.

Amino acid sequences for entries named in this document (tags omitted). A change or cut given only in a name is not applied to a line headed by its entry.
UniProt Q2M296: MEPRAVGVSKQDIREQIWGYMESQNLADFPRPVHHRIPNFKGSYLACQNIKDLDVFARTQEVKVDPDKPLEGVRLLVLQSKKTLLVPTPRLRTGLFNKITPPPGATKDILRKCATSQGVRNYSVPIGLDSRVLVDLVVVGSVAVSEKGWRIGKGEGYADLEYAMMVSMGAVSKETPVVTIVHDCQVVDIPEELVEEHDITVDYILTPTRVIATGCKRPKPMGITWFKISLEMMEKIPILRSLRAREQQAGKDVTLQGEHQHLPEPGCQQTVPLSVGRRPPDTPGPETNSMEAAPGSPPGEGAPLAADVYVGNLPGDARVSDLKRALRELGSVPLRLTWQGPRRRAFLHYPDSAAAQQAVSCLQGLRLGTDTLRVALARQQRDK
UniProt P60660, whole entry, looked up: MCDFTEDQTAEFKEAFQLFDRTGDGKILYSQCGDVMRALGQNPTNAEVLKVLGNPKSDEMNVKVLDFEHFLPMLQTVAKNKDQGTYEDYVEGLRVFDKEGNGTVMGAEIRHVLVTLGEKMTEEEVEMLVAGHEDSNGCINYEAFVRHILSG
UniProt Q9Y6C9: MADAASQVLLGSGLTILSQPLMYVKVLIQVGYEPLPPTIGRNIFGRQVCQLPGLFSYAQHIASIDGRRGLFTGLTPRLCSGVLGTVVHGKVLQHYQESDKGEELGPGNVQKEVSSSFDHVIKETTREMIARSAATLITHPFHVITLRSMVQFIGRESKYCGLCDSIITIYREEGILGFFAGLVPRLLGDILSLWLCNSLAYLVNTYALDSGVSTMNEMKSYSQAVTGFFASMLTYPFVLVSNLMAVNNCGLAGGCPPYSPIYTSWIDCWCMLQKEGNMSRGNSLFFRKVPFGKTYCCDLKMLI
UniProt P52701: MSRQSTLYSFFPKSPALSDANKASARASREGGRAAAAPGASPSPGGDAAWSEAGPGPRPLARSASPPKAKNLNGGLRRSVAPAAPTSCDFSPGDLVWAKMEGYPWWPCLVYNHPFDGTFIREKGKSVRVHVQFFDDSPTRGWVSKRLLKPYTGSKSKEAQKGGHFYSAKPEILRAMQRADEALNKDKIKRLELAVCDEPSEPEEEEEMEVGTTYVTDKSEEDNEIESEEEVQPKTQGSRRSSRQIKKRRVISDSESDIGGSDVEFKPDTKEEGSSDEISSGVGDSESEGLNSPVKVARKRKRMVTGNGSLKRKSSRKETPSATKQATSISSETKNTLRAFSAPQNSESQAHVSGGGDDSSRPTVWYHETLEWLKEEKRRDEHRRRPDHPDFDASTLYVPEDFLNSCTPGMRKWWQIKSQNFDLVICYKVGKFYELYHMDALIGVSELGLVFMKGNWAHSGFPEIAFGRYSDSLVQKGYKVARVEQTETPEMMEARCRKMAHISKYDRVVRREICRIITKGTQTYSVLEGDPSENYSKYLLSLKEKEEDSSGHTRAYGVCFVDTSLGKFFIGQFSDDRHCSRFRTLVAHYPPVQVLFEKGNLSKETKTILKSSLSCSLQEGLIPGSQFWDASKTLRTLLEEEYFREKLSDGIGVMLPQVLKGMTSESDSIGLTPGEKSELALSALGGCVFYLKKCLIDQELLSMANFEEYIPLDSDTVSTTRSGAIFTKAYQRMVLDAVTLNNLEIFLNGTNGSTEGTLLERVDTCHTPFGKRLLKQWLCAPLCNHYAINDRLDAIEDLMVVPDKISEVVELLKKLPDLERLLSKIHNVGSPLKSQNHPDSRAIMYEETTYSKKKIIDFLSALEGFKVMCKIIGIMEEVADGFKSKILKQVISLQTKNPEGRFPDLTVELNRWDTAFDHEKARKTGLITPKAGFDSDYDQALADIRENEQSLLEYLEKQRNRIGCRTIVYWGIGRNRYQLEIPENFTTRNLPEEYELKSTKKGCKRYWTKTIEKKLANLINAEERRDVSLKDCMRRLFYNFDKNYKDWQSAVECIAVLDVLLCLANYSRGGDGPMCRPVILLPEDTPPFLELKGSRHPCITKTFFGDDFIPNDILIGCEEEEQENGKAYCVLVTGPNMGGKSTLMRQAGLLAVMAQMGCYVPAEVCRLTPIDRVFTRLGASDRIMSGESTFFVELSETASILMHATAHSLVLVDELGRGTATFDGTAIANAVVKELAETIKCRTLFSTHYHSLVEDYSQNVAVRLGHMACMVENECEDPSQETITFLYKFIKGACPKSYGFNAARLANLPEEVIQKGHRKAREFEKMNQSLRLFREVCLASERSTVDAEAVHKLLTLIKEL
UniProt P58546, whole entry, looked up: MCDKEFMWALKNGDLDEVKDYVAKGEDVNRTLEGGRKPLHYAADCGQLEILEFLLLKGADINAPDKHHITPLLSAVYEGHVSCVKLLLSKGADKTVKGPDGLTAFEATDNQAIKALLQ
UniProt Q9Y3D2: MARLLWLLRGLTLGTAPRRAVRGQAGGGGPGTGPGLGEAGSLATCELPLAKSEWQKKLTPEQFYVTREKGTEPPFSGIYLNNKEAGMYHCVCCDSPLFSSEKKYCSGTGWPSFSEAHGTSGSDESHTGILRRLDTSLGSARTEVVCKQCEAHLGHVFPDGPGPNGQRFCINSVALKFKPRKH
UniProt Q9C0I1: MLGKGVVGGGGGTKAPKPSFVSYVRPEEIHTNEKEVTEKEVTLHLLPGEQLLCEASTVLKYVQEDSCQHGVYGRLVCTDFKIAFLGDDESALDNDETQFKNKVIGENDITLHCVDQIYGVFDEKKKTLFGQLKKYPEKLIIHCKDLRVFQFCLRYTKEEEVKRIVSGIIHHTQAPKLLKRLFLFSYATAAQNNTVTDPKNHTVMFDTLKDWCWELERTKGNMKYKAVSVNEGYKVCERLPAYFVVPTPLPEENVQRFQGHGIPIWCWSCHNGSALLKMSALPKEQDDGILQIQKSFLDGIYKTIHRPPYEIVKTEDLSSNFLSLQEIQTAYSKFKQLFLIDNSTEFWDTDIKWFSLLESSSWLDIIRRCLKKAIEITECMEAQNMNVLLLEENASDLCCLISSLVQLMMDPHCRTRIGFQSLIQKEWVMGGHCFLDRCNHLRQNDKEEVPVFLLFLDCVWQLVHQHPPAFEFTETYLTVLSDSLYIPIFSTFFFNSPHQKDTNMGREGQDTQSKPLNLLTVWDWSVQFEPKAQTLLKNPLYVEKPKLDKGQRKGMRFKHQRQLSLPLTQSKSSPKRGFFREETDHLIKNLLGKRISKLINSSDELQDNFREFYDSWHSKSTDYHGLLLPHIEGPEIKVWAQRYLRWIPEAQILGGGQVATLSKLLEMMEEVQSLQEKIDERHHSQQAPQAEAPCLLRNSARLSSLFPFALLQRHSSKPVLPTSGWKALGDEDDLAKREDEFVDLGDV
UniProt Q9UDX5: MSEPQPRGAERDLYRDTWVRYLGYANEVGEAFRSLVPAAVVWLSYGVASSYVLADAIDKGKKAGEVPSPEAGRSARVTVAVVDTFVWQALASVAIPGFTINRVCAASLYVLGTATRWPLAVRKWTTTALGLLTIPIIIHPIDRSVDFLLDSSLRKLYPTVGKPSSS
UniProt O75431: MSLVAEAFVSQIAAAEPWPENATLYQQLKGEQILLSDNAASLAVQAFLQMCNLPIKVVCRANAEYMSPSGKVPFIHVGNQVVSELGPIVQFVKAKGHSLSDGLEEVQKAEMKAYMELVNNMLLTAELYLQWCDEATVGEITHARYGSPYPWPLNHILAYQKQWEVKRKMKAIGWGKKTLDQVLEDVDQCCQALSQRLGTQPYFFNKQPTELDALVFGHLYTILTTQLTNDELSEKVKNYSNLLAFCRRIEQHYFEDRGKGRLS
UniProt Q96QG7: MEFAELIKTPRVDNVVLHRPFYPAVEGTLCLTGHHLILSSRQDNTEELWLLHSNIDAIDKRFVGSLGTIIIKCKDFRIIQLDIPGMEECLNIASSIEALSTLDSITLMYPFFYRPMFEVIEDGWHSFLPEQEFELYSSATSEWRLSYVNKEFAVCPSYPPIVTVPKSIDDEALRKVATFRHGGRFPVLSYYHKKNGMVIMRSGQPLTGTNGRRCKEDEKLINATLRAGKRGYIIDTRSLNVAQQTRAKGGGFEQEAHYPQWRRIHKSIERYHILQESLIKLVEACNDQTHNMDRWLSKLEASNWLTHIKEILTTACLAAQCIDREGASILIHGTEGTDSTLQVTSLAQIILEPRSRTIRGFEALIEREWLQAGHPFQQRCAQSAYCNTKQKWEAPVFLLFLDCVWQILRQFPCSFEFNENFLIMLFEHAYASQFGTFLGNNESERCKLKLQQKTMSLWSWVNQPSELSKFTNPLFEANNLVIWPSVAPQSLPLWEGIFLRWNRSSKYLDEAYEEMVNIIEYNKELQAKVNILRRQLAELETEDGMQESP
UniProt Q6UB35, whole entry, looked up: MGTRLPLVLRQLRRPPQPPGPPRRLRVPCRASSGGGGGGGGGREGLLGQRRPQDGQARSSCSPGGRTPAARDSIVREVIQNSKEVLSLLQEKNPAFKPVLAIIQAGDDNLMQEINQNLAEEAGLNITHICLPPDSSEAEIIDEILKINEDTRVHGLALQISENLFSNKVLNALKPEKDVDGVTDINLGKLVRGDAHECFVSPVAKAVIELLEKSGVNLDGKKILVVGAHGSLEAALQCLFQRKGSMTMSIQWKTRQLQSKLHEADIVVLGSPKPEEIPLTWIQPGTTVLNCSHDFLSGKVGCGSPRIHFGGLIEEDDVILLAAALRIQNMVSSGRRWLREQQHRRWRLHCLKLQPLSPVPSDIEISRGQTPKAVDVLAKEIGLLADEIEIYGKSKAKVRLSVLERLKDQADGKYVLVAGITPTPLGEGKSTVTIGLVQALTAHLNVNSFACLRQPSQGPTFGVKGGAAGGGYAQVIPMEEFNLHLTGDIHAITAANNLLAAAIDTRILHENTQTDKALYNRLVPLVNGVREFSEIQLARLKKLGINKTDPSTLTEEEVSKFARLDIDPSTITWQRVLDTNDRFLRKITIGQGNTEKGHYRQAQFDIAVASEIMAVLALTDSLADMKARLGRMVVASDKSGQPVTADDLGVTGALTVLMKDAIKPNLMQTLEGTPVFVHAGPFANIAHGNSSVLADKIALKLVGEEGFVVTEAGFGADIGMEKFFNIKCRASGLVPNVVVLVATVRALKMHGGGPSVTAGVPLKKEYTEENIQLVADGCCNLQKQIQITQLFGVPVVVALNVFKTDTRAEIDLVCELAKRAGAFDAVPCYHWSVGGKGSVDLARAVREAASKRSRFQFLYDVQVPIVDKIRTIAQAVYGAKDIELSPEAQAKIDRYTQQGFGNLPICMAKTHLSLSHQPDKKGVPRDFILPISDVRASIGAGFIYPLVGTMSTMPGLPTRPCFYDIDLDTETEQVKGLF
UniProt Q96DH6: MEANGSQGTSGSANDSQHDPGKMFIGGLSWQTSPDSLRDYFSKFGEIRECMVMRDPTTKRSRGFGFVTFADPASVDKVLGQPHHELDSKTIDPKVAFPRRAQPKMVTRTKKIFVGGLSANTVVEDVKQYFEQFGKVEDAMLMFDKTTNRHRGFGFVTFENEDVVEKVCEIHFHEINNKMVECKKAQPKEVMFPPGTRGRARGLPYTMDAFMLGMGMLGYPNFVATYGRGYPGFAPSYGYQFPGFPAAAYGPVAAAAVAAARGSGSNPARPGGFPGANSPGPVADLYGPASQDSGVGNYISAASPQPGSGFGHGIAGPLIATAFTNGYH
UniProt P42285: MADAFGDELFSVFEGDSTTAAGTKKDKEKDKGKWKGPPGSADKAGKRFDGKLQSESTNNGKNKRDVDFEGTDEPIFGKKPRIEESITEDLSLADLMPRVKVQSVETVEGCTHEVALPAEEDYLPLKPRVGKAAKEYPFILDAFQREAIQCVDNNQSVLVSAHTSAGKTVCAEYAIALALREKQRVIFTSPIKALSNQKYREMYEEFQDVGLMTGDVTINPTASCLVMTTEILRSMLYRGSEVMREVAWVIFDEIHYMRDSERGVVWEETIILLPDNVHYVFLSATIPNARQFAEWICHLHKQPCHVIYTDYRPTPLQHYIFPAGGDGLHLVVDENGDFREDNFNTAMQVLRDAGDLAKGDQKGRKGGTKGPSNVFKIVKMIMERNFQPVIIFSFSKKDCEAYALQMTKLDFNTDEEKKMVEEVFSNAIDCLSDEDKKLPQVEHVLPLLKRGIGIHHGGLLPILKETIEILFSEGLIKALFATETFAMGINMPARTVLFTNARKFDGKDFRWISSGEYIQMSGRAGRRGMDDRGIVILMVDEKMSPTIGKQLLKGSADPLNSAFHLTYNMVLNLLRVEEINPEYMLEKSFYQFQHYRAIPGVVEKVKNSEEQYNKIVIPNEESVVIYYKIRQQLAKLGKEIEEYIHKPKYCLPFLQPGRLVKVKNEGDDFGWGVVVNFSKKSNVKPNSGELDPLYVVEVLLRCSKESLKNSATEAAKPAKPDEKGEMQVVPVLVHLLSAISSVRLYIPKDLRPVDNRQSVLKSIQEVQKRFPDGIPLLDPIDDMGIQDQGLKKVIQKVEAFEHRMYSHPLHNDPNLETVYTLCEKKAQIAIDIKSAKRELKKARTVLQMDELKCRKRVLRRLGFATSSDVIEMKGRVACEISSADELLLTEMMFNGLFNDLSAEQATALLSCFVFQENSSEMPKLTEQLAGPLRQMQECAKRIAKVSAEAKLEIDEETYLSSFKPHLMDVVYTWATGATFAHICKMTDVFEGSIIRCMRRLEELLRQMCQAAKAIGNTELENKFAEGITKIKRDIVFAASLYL

Legend:
Experiment in all cases: log2 fold change, soluble protein after heating vs DMSO (PISA); higher = thermal stabilisation; K562 cells, 10 uM, 30 min; active = over 0.2 and 3.5 SD of the protein, either way, in both replicates (recomputed)
[1] = compound: C1=CC=C(C=C1)[C@H](COC2=CC3=C(C=C2)NC(=O)N3)NC(=O)C4=CC=CN(C4=O)CC5=CC(=C(C=C5)F)F
Summary of the method: (§1)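 K562 cells (2×10^6 cells/mL) were treated with 10 μM compound for 30 min, and aliquots were heated for 3 min over 48°C-58°C. Pooled aliquots were extracted in PBS with 0.5% NP-40 at 4°C, and the supernatant after 21,000xg for 90 min was measured by TMTpro 16plex LC-MS/MS with channel sums equalised. Reported thermal stability, relative to control samples and from duplicates, is a log2 fold change.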

[2] = compound: CC1=C(SC2=C1C(=N[C@H](C3=NN=C(N32)C)CC(=O)N)C4=CC=C(C=C4)Cl)C
Summary of the method: as §1

[3] = compound: CC1=C2C(=CC=C1)N=C(N(C2=O)C3=CC=CC=C3C)CN4C=NC5=C(N=CN=C54)N
Summary of the method: as §1

[4] = compound: Cc1sc2c(c1C)C(c1ccc(Cl)cc1)=N[C@@H](CC(=O)OC(C)(C)C)c1nnc(C)n1-2
Summary of the method: as §1

[5] = compound: c1ccc([C@@H]2C[C@H]2NC2CCNCC2)cc1
Summary of the method: as §1

Measured: log2 fold change

MTHFSD isoform 3 (UniProt Q2M296)
inactive: [1] 0.076 | [2] -0.073 | [3] -0.07 | [4] 0.059 | [5] 0.081

MRTO4 (UniProt Q9UKD2)
inactive: [1] 0.023 | [2] -0.246 | [3] -0.048 | [4] 0.018 | [5] 0.009

MYL6 isoform 2 (UniProt P60660)
inactive: [1] 0.024 | [2] 0.026 | [3] 0.025 | [4] -0.047 | [5] 0.026

MUL1 (UniProt Q969V5)
inactive: [1] -0.002 | [2] 0.006 | [3] 0.044 | [4] -0.107 | [5] 0.02

MRPS17 (UniProt Q9Y2R5)
inactive: [1] -0.031 | [2] -0.044 | [3] -0.011 | [4] 0.06 | [5] -0.064

MTCH2 (UniProt Q9Y6C9)
inactive: [1] 0.041 | [2] 0.03 | [3] 0.11 | [4] 0.003 | [5] -0.004

MRPS5 (UniProt P82675)
inactive: [1] -0.017 | [2] 0.009 | [3] -0.03 | [4] 0.063 | [5] -0.077

MSH6 (UniProt P52701)
inactive: [1] -0.24 | [2] 0.08 | [3] 0.127 | [4] -0.056 | [5] -0.008

MRPS33 (UniProt Q9Y291)
inactive: [1] 0.005 | [2] -0.057 | [3] -0.114 | [4] 0.098 | [5] -0.002

MTPN (UniProt P58546)
inactive: [1] -0.028 | [2] 0.128 | [3] 0.032 | [4] -0.132 | [5] -0.071

MRPS22 (UniProt P82650)
inactive: [1] -0.016 | [2] 0.05 | [3] -0.037 | [4] 0.087 | [5] -0.063

MSRB2 (UniProt Q9Y3D2)
inactive: [1] 0.198 | [2] 0.025 | [3] 0.049 | [4] 0.143 | [5] -0.019

MTMR12 (UniProt Q9C0I1)
inactive: [1] 0.014 | [2] 0.083 | [3] 0.046 | [4] 0.006 | [5] 0.026

MTFP1 (UniProt Q9UDX5)
inactive: [1] 0.041 | [2] 0.061 | [3] 0.013 | [4] -0.01 | [5] 0

MRPS18A isoform 2 (UniProt Q9NVS2)
inactive: [1] 0 | [2] -0.122 | [3] 0.013 | [4] 0.025 | [5] -0.094

MRPS34 (UniProt P82930)
inactive: [1] 0.096 | [2] -0.023 | [3] 0.004 | [4] 0.053 | [5] -0.056

MRPS27 isoform 2 (UniProt Q92552)
inactive: [1] -0.063 | [2] 0.04 | [3] 0.01 | [4] 0.035 | [5] -0.059

MRPS6 (UniProt P82932)
inactive: [1] -0.084 | [2] 0.012 | [3] 0.052 | [4] 0.052 | [5] -0.022

MTX2 (UniProt O75431)
inactive: [1] 0.04 | [2] 0.075 | [3] 0.035 | [4] -0.036 | [5] -0.016

MTMR9 (UniProt Q96QG7)
inactive: [1] -0.011 | [2] 0.123 | [3] 0.09 | [4] 0.041 | [5] -0.041

MTHFD1L (UniProt Q6UB35)
inactive: [1] -0.032 | [2] 0.06 | [3] 0.081 | [4] -0.004 | [5] -0.036

MSI2 (UniProt Q96DH6)
inactive: [1] 0.077 | [2] -0.036 | [3] -0.043 | [4] 0.151 | [5] 0.038

Random excerpt: 2 entries already listed, in no set order.
MTHFD1L (UniProt Q6UB35)
inactive: [1] -0.032 | [2] 0.06 | [3] 0.081 | [4] -0.004 | [5] -0.036

MTMR9 (UniProt Q96QG7)
inactive: [1] -0.011 | [2] 0.123 | [3] 0.09 | [4] 0.041 | [5] -0.041

Later entries.

MTHFR isoform 2 (UniProt P42898)
inactive: [1] -0.004 | [2] 0.06 | [3] 0.078 | [4] -0.02 | [5] -0.085

MTREX (UniProt P42285)
inactive: [1] -0.031 | [2] 0.059 | [3] 0.063 | [4] -0.003 | [5] -0.001
